In article PMC11648230, “Structure–function analysis of tRNA t^6A-catalysis, assembly, and thermostability of Aquifex aeolicus TsaD2B2 tetramer in complex with TsaE” (The Journal of Biological Chemistry, 2024) one finds binding data, which are given here for two molecules.

Test [1] addresses Aquifex aeolicus TsaE (Aquifex aeolicus) (UniProt O67011). Kind of test: SEC; A. aeolicus TsaE alone; elution volume compared with monomeric TsaEs of T. maritima and E. coli; both purified. In general terms: SEC sorts molecules by how far they enter the pores of the column.
In test [2] the target is Thermotoga maritima TsaB with nine alanine mutations in β3 (Thermotoga maritima) (UniProt Q9WZX7). Kind of test: SEC; co-purified TsaD–TsaB complexes and variants; elution profiles compared with one another (tetramer against dimer); Superdex 200, after Ni-NTA; both purified.

These are yes or no findings as the source states them, for the method shown.

B1: Aquifex aeolicus TsaE (enzyme, UniProt O67011 1-133)
chain: MELLKEVILESEEDTYKLAEEIAQLLKGSEVICLRGTLGAGKTTFVKALAKALKVKNPSAVRSPTFTLVNEYETDKGKLIHIDLYRVPDFDYSEFIGEGILAVEWEERDKPCDIILEIEILDENKRKVRIYRK
For the molecule B1, the binding result in test [1] is recorded as “no binding”.

B2: Thermotoga maritima TsaB with nine alanine mutations in β3 (protein, UniProt Q9WZX7 2-206)
chain: NVLALDTSQRIRIGLRKGAAAFAIAAAGAAKHAEILPVVVKKLLDELDLKVKDLDVVGVGIGPGGLTGLRVGIATVVGLVSPYDIPVAPLNSFEMTAKSCPADGVVLVARRARKGYHYCAVYLKDKGLNPLKEPSVVSDEELEEITKEFSPKIVLKDDLLISPAVLVEESERLFREKKTIHYYEIEPLYLQKSIAELNWEKKKRG
B2: the binding result in test [2] was “no binding”.
